# Assay results published in the supplement of paper PMC8728848.
# The list shows a part of the results.
# Columns and labels:
# Test in all cases: glycan array binding signal (z-score within array); higher = stronger binding
# Conditions in all cases: glycan notation: IUPAC condensed, linker removed
# [1] = target: Neu5Ac(a2-3)Gal(b1-3)[Fuc(a1-4)]GlcNAc
# Method in brief: (§1)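 The Consortium for Functional Glycomics database supplied 3228 glycan arrays, of which those lacking an available protein sequence were dropped. The binding signal, a within-array Z-score, was averaged across arrays of the same protein sequence and across linkers. Negative scores can be read as non-binding.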
# [2] = target: Neu5Ac(a2-3)Gal(b1-3)[Fuc(a1-4)]GlcNAc(b1-3)Gal(b1-3)[Fuc(a1-4)]GlcNAc
# Method in brief: as §1
# [3] = target: Neu5Ac(a2-3)Gal(b1-3)[Fuc(a1-4)]GlcNAc(b1-3)Gal(b1-4)[Fuc(a1-3)]GlcNAc
# Method in brief: as §1
# [4] = target: Neu5Ac(a2-3)Gal(b1-3)[GlcNAc(b1-6)]GalNAc
# Method in brief: as §1
# [5] = target: Neu5Ac(a2-3)Gal(b1-3)[Neu5Ac(a2-6)]GalNAc
# Method in brief: as §1
# [6] = target: Neu5Ac(a2-3)Gal(b1-3)[Neu5Ac(a2-6)]GlcNAc(b1-3)[Fuc(a1-3)[Gal(b1-4)]GlcNAc(b1-6)]Gal(b1-4)Glc
# Method in brief: as §1
# [7] = target: Neu5Ac(a2-3)Gal(b1-3)]Neu5Ac(a2-3)Gal(b1-4)]GlcNAc
# Method in brief: as §1
# [8] = target: Neu5Ac(a2-3)Gal(b1-4)Glc
# Method in brief: as §1
# [9] = target: Neu5Ac(a2-3)Gal(b1-4)GlcNAc
# Method in brief: as §1
# [10] = target: Neu5Ac(a2-3)Gal(b1-4)GlcNAc(b1-2)Man
# Method in brief: as §1
# [11] = target: Neu5Ac(a2-3)Gal(b1-4)GlcNAc(b1-2)Man(a1-3)[GlcNAc(b1-4)][Neu5Ac(a2-3)Gal(b1-4)GlcNAc(b1-2)Man(a1-6)]Man(b1-4)GlcNAc(b1-4)GlcNAc
# Method in brief: as §1
# [12] = target: Neu5Ac(a2-3)Gal(b1-4)GlcNAc(b1-2)Man(a1-3)[Neu5Ac(a2-3)Gal(b1-4)GlcNAc(b1-2)Man(a1-6)]Man(b1-4)GlcNAc(b1-4)GlcNAc
# Method in brief: as §1
# [13] = target: Neu5Ac(a2-3)Gal(b1-4)GlcNAc(b1-2)Man(a1-3)[Neu5Ac(a2-3)Gal(b1-4)GlcNAc(b1-2)Man(a1-6)]Man(b1-4)GlcNAc(b1-4)[Fuc(a1-6)]GlcNAc
# Method in brief: as §1
# [14] = target: Neu5Ac(a2-3)Gal(b1-4)GlcNAc(b1-2)Man(a1-3)[Neu5Ac(a2-6)Gal(b1-4)GlcNAc(b1-2)Man(a1-6)]Man(b1-4)GlcNAc(b1-4)GlcNAc
# Method in brief: as §1
# [15] = target: Neu5Ac(a2-3)Gal(b1-4)GlcNAc(b1-2)[Neu5Ac(a2-3)Gal(b1-4)GlcNAc(b1-4)]Man(a1-3)[GlcNAc(b1-4)][Neu5Ac(a2-3)Gal(b1-4)GlcNAc(b1-2)[Neu5Ac(a2-3)Gal(b1-4)GlcNAc(b1-6)]Man(a1-6)]Man(b1-4)GlcNAc(b1-4)GlcNAc
# Method in brief: as §1
# [16] = target: Neu5Ac(a2-3)Gal(b1-4)GlcNAc(b1-2)[Neu5Ac(a2-3)Gal(b1-4)GlcNAc(b1-4)]Man(a1-3)[GlcNAc(b1-4)][Neu5Ac(a2-3)Gal(b1-4)GlcNAc(b1-4)Man(a1-6)]Man(b1-4)GlcNAc(b1-4)GlcNAc
# Method in brief: as §1
# [17] = target: Neu5Ac(a2-3)Gal(b1-4)GlcNAc(b1-2)[Neu5Ac(a2-3)Gal(b1-4)GlcNAc(b1-6)]Man(a1-6)[Neu5Ac(a2-3)Gal(b1-4)GlcNAc(b1-2)Man(a1-3)]Man(b1-4)GlcNAc(b1-4)GlcNAc
# Method in brief: as §1
# [18] = target: Neu5Ac(a2-3)Gal(b1-4)GlcNAc(b1-2)[Neu5Ac(a2-3)Gal(b1-4)GlcNAc(b1-6)]Man(a1-6)[Neu5Ac(a2-3)Gal(b1-4)GlcNAc(b1-2)Man(a1-3)][GlcNAc(b1-4)]Man(b1-4)GlcNAc(b1-4)GlcNAc
# Method in brief: as §1
# [19] = target: Neu5Ac(a2-3)Gal(b1-4)GlcNAc(b1-3)Gal
# Method in brief: as §1
# [20] = target: Neu5Ac(a2-3)Gal(b1-4)GlcNAc(b1-3)Gal(b1-3)GlcNAc
# Method in brief: as §1
# [21] = target: Neu5Ac(a2-3)Gal(b1-4)GlcNAc(b1-3)Gal(b1-4)GlcNAc
# Method in brief: as §1
# [22] = target: Neu5Ac(a2-3)Gal(b1-4)GlcNAc(b1-3)Gal(b1-4)GlcNAc(b1-2)Man(a1-3)[Neu5Ac(a2-3)Gal(b1-4)GlcNAc(b1-3)Gal(b1-4)GlcNAc(b1-2)Man(a1-6)]Man(b1-4)GlcNAc(b1-4)GlcNAc
# Method in brief: as §1
# [23] = target: Neu5Ac(a2-3)Gal(b1-4)GlcNAc(b1-3)Gal(b1-4)GlcNAc(b1-3)Gal(b1-4)GlcNAc
# Method in brief: as §1
# [24] = target: Neu5Ac(a2-3)Gal(b1-4)GlcNAc(b1-3)Gal(b1-4)GlcNAc(b1-3)Gal(b1-4)GlcNAc(b1-2)Man(a1-3)[Neu5Ac(a2-3)Gal(b1-4)GlcNAc(b1-3)Gal(b1-4)GlcNAc(b1-3)Gal(b1-4)GlcNAc(b1-2)Man(a1-6)]GalNAc
# Method in brief: as §1
# [25] = target: Neu5Ac(a2-3)Gal(b1-4)GlcNAc(b1-3)Gal(b1-4)GlcNAc(b1-3)GalNAc
# Method in brief: as §1
# [26] = target: Neu5Ac(a2-3)Gal(b1-4)GlcNAc(b1-3)Gal(b1-4)GlcNAc(b1-3)[Neu5Ac(a2-3)Gal(b1-4)GlcNAc(b1-3)Gal(b1-4)GlcNAc(b1-6)]GalNAc
# Method in brief: as §1
# [27] = target: Neu5Ac(a2-3)Gal(b1-4)GlcNAc(b1-3)Gal(b1-4)GlcNAc(b1-6)[Gal(b1-3)]GalNAc
# Method in brief: as §1
# [28] = target: Neu5Ac(a2-3)Gal(b1-4)GlcNAc(b1-3)Gal(b1-4)[Fuc(a1-3)]GlcNAc
# Method in brief: as §1
# [29] = target: Neu5Ac(a2-3)Gal(b1-4)GlcNAc(b1-3)GalNAc
# Method in brief: as §1
# [30] = target: Neu5Ac(a2-3)Gal(b1-4)GlcNAc(b1-3)[Neu5Ac(a2-3)Gal(b1-4)GlcNAc(b1-6)]GalNAc
# Method in brief: as §1
binder,measurement,setting,value
GS7807Q-bfa-507-19-507 (Bacteroides fragilis) (protein) ASCNKFDDLNTNPDAATKVTAPMLATKLILNITQQGSAKNFVYHSMLSKQIAWSENASDEQYNLFGRTDFDGYTILTNCQKMVDAANEGDKDSYAALAKFMKAYKLFYKSLEVGDIPYSDALKGEEGVQKPKYDTQKEVMRQVLEDLEEAYTLFSSGSDFDGDPIFGGDTENWKKTVVAFELKVLTHLCKKDTDADLKVKERFARLVSSGSLMTSNADNFQLVYSNKAGQLYPFYYTQNKHSDYLMMSSVIIDNLKKFNDYRMFYYASPAKAQTDKGIKDSEWDAYLSIDPSDSYSNISVLYGKGEFCLANLRYTRVPEGEPLMRLSYAEQNFILAEGAVRGWISEDASTYYKKGIEASMNFIADNTPDKEEYTHGRTITQEYIQEYLAQPVIQLSGDKEKDLEMILLQRYLASFLQHPYDAYYDYRRTGYPVLPINPSTNLNTEKNKIPTRWMYPEAEFSYNPDNANEAVQRQYNGSDDVNKLMWILQ,glycan array binding signal (z-score),[1],0.478
same,glycan array binding signal (z-score),[2],-0.567
same,glycan array binding signal (z-score),[3],-0.38
same,glycan array binding signal (z-score),[4],-1.42
same,glycan array binding signal (z-score),[5],-0.795
same,glycan array binding signal (z-score),[6],-0.05
same,glycan array binding signal (z-score),[7],-0.397
same,glycan array binding signal (z-score),[8],-0.57
same,glycan array binding signal (z-score),[9],-0.496
same,glycan array binding signal (z-score),[10],0.435
same,glycan array binding signal (z-score),[11],-0.905
same,glycan array binding signal (z-score),[12],-0.347
same,glycan array binding signal (z-score),[13],-0.209
same,glycan array binding signal (z-score),[14],-0.656
same,glycan array binding signal (z-score),[15],-0.028
same,glycan array binding signal (z-score),[16],-0.908
same,glycan array binding signal (z-score),[17],1.35
same,glycan array binding signal (z-score),[18],-0.035
same,glycan array binding signal (z-score),[19],-0.133
same,glycan array binding signal (z-score),[20],-0.713
same,glycan array binding signal (z-score),[21],-0.947
same,glycan array binding signal (z-score),[22],0.618
same,glycan array binding signal (z-score),[23],-0.273
same,glycan array binding signal (z-score),[24],2.66
same,glycan array binding signal (z-score),[25],-0.333
same,glycan array binding signal (z-score),[26],1.66
same,glycan array binding signal (z-score),[27],-0.541
same,glycan array binding signal (z-score),[28],-0.515
same,glycan array binding signal (z-score),[29],-0.737
same,glycan array binding signal (z-score),[30],0.035

# Part of the list above, bar-delimited:
binder | measurement | setting | value
GS7807Q-bfa-507-19-507 (Bacteroides fragilis) (protein) ASCNKFDDLNTNPDAATKVTAPMLATKLILNITQQGSAKNFVYHSMLSKQIAWSENASDEQYNLFGRTDFDGYTILTNCQKMVDAANEGDKDSYAALAKFMKAYKLFYKSLEVGDIPYSDALKGEEGVQKPKYDTQKEVMRQVLEDLEEAYTLFSSGSDFDGDPIFGGDTENWKKTVVAFELKVLTHLCKKDTDADLKVKERFARLVSSGSLMTSNADNFQLVYSNKAGQLYPFYYTQNKHSDYLMMSSVIIDNLKKFNDYRMFYYASPAKAQTDKGIKDSEWDAYLSIDPSDSYSNISVLYGKGEFCLANLRYTRVPEGEPLMRLSYAEQNFILAEGAVRGWISEDASTYYKKGIEASMNFIADNTPDKEEYTHGRTITQEYIQEYLAQPVIQLSGDKEKDLEMILLQRYLASFLQHPYDAYYDYRRTGYPVLPINPSTNLNTEKNKIPTRWMYPEAEFSYNPDNANEAVQRQYNGSDDVNKLMWILQ | glycan array binding signal (z-score) | [3] | -0.38
same | glycan array binding signal (z-score) | [14] | -0.656
